Source: patent US10842151B2, “Small molecule compound for enhancing plant stress resistance” (SHANGHAI INSTITUTES FOR BIOLOGICAL SCIENCES, CHINESE …, priority 2015, dated 2020)
At least one read-out could not be matched to a standard name with certainty.

Target: PYR1/PYL1/PYL2/PYL7 + HAB1
Experiment: AlphaScreen experiment, PYL receptor binding to HAB1
Parameters: species or system Arabidopsis
Details: relative to ABA
Method: After incubating for 1.5 hours at room temperature in the dark, it was placed into an Envision Plate Reader (available from Perkin Elmer) under the programmed AlphaScreen procedure for readings.

Structure (SMILES): CCCN1C(=O)CC(C)c2cc(NS(=O)(=O)Cc3c(F)c(F)c(C)c(F)c3F)ccc21 (stereo not shown) [Compound 0720B]
- EC50 value less than that of ABA: 1-2 orders of magnitude
